Assay results: patent US4087390A (Eli Lilly and Company, priority 1977, dated 1978)
Strings that start with PEPTIDE1 are HELM notation: dots part the residues, brackets hold end groups and non-standard residues.

Assay: general procedure: Boc solid-phase peptide synthesis; chloromethylated resin or hydroxymethyl resin

Substance: PEPTIDE1{A.[dV].C.K.N.F.F.[dW].K.T.F.T.S.C}$PEPTIDE1,PEPTIDE1,3:R3-14:R3$$$V2.0
- oxidative folding yield (oxidative folding step, from reduced form): 31.6%
- step yield (purification step): 88.5% recovery
- isolated yield (whole synthesis): 25.7%
